Among all 410,000 compounds or so, about 530 (0.13%) were called active. All entries are inconclusive by the source's own rule. Clear calls are listed elsewhere. The call rests on the fitted dose curve; in most records, active means well fitted inhibition curve with a large enough effect; inconclusive means small, poorly fitted or top-dose-only effect, or another doubt; inactive means no such curve, though single readings can be large or run the other way.
Test: qHTS of GLP-1 Receptor Inverse Agonists: Cytotox Screen;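 further: loss of luciferase light is scored as toxicity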
Conditions: HEK293 cAMP-luciferase reporter cells, luminescence, 24 h
Source text: The overall goal of this project was to develop a novel assay for discovering small molecule ligands for class B1 G protein-coupled receptors (GPCRs). Very few agonists (or inverse agonists) with generally weak activity for this entire group of physiologically important receptors are known to date. To establish proof-of-principle that this critical bottleneck can be overcome with a suitable screening approach, our studies focused on the class B1 receptor for glucagon-like peptide-1 (GLP-1R), a potential therapeutic target for diabetes and neurodegenerative disease.
The assay was developed using a cell-based functional readout. Toward this goal, stably transfected HEK293 cell clones were established that co-express (i) a cAMP-responsive luciferase reporter gene, and (ii) constitutively active GLP-1R that upon ligand interaction inhibit (inverse agonists) the luciferase activity. In addition, two control cell lines were developed: (i) one that express only the cAMP-responsive reporter gene to enable initial exclusion of GLP-1R independent effects of candidate probes; and (ii) one with the reported gene cloned with another constitutively active orphan receptor GPR119 to enable exclusion of GLP-1R independent inhibitor effects of candidate inverse agonists.
To that end, this assay was optimized for 1536-well format and screened against the MLSMR. Then the same collection was run in this cytotoxicity assay where inhibition was the undesired outcome.
NIH Molecular Libraries Probe Production Network [MLPCN]
NIH Chemical Genomics Center [NCGC]
PI Name: Martin Beinborn, Tufts Medical Center
Six ul of cell suspension (200 cells/uL in DMEM + 10% Nu serum + 1% pen-strep) is dispensed in a white solid 1536-well plate. The plates are incubated for 12 hours at 37 deg C at 5% CO2 followed by addition of 23 nL compounds. After 24 hr incubation at 37 deg C and 5% CO2, 3 uL of luciferase assay detection reagent is added. A luminescence read is obtained on the PerkinElmer Viewlux after 12 min incubation at room temperature.
Potency means the concentration at half of the fitted maximal effect.

Row | SMILES | Potency
1 | Cc1ccc(Nc2c([N+](=O)[O-])cc([N+](=O)[O-])cc2[N+](=O)[O-])cc1 | inconclusive: 17.8 µM
2 | O=[N+]([O-])c1cc([N+](=O)[O-])c(Nc2ccc(Cl)cc2)c([N+](=O)[O-])c1 | inconclusive: 10 µM
3 | O=[N+]([O-])c1cc([N+](=O)[O-])c(OC2CCCCC2O)c([N+](=O)[O-])c1 (stereo not drawn) | inconclusive: 28.2 µM

From PubChem BioAssay AID624418 (National Center for Advancing Translational Sciences (NCATS), 2012)
